Measured values taken from patent publication US9012446B2, “Amino-oxazines and amino-dihydrothiazine compounds as beta-secretase modulators and methods of use” (Amgen Inc., priority 2010, dated 2015).
For at least one compound, name, drawing or mass did not settle the structure.

Test system: Aβ40
Assay: In vitro BACE cell-based assay (Aβ40 sandwich ELISA, cells stably expressing APP)
Details: average IC50; read-out: HEK cell assay
Experimental: In Vitro BACE Cell-Based Assay […] Cells stably expressing Amyloid Precursor Protein (APP) were plated at a density of 40K cells/well in 96 well plates (Costar). The cells were cultivated for 24 hours at 37° C. and 5% CO2 in DMEM supplemented with 10% FBS. The test compounds were then added to cells in 10-point dose response concentrations with the starting concentration being either 100 μM or 10 μM. The compounds were diluted from stock solutions in DMSO and the final DMSO concentration of the test compounds on cells was 0.1%. […] The IC50 of the compound was calculated from the percent of control or percent inhibition of Aβ40 as a function of the concentration of the test compound. The sandwich ELISA to detect Aβ40 was performed in 96 well microtiter plates, which were pre-treated with goat anti-rabbit IgG (Pierce). […] The optimal concentration for the pAb40 antibody was 3 μg/ml in Superblock/TBS (Pierce) that was supplemented with 0.05% Tween 20 (Sigma). […] Cellular supernatants were incubated with the capture antibody for 3 h at 4° C., followed by 3 wash steps in TBS-tween (0.05%). […] The final readout of the ELISA is Time-Resolved Fluorescence (counts per minute) using Delfia reagents Streptavidin-Europium and Enhancement solutions (Perkin Elmer) and the Victor 2 multilabel counter (Perkin Elmer).

NC1=N[C@@]2(CO[C@@H]1C(F)(F)F)c1cc(Br)ccc1Oc1cnc(Cl)cc12 [compound 205]
IC50: 10 µM
